Laboratory results from patent US20200060994A1, “METHODS OF TREATING PSYCHIATRIC STRESS DISORDERS” (Yeda Research and Development Co. Ltd., priority 2017, published 2020).
At least one structure is not confirmed: it was looked up by name or label, or the drawing left a doubt.

Tests used:
Balb/c mice [1] = experiment: Open field (OF) test, Balb/c mice; assay type: in vivo, mouse
wild type C57BL6 mice [2] = experiment: Elevated plus maze (EPM) test, wild type mice; assay type: in vivo, mouse; conditions: S1P receptor agonist 0.1 mg/kg i.p.
Method: All drugs were administered by intraperitoneal injection (I.P.). […] A. CNS Drug Rev.
The EPM contains two open arms and two enclosed ones connected by a central square. Exploration on the open arms is reduced in high anxiety states while it is increased in low anxiety states [Walf, A. A. & Frye, C. A. Nat. Protoc. 2, 322-8 (2007)]. Mice were placed on the central platform facing one of the “open” arms to initiate a 5-minutes test session and the time spent in each arm was measured. The test was performed under 7 lx and 65 dB white noise. The number of entries into, the time spent/distance on the open arms and the percentage of the open arm entries compared with total number of arm entries were recorded using the VideoMot2 software (TSE System, Germany) or the Ethovision XT11 software (Noldus Information Technology, The Netherlands).

Balb/c mice [3] = experiment: Elevated plus maze (EPM) test, Balb/c mice; assay type: in vivo, mouse
wild type C57BL6 mice [4] = experiment: Open field (OF) test, wild type mice; conditions: S1P receptor agonist 0.1 mg/kg i.p.
[5] = fingolimod treatment, BALB/c mice
[6] = fingolimod, Balb/c mice, vs vehicle

## CCCCCCCCc1ccc(CCC(N)(CO)CO)cc1 [fingolimod]
Balb/c mice [1]; [5]
  anxiety responses in the OF assay: significantly reduced
Balb/c mice [1]; [6]
  distance travelled in the center of the OF: increasing
  time spent in the center of the OF: increasing
Wild type C57BL6 mice [2]; C57BL6, vs vehicle
  time spent in the open arms of the EPM: increasing
Wild type C57BL6 mice [2]; C57Bl6
  anxiety levels in the EPM assay: markedly reduced
Balb/c mice [3]; [5]
  anxiety responses in the EPM assay: significantly reduced
Balb/c mice [3]; [6]
  time spent in the open arms of the EPM: increasing
Wild type C57BL6 mice [4]; C57BL6, vs vehicle
  distance travelled in the center of the OF: increasing
  time spent in the center of the OF: increasing
Wild type C57BL6 mice [4]; C57Bl6
  anxiety levels in the OF assay: markedly reduced
